This data set can be described thus: peptide made by a vendor. The conditions noted are these: whole synthesis.

Where a sequence shows no end group, the ends are not given.

Consider KGGSCSGGK, for which the “purity (crude or final not stated)” value is 97.49%.

For the origin of these results see patent publication US20180055946 (published 2018).
